This is one part of the list.
Experiments:
Assay in all cases: log2 fold change, soluble protein after heating vs DMSO (PISA); higher = thermal stabilisation; K562 cells, 10 uM, 30 min; active = over 0.2 and 3.5 SD of the protein, either way, in both replicates (recomputed)
[1] = compound: CC1=C(C=C(C=C1)NC(=O)C2=CC(=CC=C2)C(C)(C)C#N)NC3=CC4=C(C=C3)N=CN(C4=O)C
In short: (§1)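 Soluble protein was defined as the supernatant after 21,000xg for 90 min. It came from K562 cells at 2×10^6 cells/mL given 10 μM compound for 30 min, heated in aliquots for 3 min across 48°C-58°C, pooled, and extracted in PBS with 0.5% NP-40 at 4°C, and was quantified by TMTpro 16plex LC-MS/MS with equalised channel sums. Thermal stability against control samples, from duplicates, is reported as log2 fold change.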

The chains behind the UniProt entries cited, without tags or fusion partners. Where a name states a change or a piece, a line headed by the entry shows the natural chain unless it says otherwise.
UniProt Q9NX62: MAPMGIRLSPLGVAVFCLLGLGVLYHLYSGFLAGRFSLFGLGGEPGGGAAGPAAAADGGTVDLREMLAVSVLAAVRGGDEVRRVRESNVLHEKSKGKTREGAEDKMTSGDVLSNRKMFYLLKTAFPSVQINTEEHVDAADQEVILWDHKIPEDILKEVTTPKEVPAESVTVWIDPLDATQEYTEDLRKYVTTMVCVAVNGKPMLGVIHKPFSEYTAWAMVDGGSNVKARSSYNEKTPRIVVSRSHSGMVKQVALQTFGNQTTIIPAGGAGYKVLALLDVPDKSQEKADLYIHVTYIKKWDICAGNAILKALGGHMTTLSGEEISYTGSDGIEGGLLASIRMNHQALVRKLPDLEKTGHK
UniProt P18084: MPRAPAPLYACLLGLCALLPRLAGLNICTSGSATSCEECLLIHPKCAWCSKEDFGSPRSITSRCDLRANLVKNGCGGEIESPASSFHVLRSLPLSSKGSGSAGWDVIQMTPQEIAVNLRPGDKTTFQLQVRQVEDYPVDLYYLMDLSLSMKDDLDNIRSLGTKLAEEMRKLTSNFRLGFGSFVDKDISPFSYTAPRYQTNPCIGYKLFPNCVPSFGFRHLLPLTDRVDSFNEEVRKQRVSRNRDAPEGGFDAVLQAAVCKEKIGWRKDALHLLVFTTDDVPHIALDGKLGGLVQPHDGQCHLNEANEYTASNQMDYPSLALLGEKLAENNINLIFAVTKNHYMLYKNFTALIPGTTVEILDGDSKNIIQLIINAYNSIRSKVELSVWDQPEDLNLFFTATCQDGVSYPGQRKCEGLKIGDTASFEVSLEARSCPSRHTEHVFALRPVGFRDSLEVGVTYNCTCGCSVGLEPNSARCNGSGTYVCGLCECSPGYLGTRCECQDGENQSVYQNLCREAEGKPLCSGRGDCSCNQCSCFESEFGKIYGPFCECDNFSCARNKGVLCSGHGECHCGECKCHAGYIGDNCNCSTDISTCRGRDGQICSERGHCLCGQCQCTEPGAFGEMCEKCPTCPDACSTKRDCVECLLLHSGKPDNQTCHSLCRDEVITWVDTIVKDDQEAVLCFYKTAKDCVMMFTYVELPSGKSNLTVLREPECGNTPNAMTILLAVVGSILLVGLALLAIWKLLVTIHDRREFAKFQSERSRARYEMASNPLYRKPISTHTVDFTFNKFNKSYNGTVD
UniProt Q96J02: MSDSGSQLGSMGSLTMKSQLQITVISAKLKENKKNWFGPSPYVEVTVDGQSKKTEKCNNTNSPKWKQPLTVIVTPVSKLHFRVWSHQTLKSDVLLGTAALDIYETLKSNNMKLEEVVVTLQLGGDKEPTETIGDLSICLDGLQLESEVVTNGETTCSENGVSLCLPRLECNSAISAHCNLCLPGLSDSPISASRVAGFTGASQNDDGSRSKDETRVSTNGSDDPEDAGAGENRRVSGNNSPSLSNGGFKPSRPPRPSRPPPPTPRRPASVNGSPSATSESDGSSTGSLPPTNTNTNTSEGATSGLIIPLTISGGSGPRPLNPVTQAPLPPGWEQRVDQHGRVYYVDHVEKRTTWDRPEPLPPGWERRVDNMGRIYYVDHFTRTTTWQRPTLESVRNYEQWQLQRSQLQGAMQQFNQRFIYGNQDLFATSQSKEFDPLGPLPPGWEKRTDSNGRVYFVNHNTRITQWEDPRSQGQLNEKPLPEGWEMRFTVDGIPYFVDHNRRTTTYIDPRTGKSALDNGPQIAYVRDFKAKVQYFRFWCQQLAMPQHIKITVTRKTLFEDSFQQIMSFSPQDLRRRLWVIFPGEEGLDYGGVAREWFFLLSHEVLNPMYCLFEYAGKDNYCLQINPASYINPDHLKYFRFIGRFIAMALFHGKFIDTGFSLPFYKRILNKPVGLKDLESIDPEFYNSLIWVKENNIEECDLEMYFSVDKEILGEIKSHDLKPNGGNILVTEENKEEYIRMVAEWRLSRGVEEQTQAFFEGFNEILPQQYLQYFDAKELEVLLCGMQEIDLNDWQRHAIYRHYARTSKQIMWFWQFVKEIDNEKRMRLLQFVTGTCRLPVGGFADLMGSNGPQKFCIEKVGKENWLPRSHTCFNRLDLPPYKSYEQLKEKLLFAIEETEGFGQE
UniProt Q9NVR2, whole entry, looked up: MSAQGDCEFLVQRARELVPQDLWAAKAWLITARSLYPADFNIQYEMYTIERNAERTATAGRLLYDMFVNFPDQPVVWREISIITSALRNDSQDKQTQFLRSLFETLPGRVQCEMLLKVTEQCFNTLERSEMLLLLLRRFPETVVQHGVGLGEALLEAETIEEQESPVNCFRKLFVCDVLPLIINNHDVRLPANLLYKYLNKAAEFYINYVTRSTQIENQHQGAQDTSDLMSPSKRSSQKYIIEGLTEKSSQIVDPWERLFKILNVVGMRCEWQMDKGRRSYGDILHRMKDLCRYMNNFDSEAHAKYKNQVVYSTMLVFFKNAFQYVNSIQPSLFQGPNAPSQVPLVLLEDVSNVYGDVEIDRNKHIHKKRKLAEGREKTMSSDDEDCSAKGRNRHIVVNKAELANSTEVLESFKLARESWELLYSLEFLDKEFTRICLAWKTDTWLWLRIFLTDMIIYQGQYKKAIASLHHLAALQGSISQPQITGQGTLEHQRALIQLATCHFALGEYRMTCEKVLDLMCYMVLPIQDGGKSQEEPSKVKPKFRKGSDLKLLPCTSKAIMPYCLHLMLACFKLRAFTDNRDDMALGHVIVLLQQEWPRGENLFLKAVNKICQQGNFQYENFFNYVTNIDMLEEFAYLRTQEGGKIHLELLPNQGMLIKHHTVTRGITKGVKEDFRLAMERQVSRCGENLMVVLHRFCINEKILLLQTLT
UniProt Q96HW7, whole entry, looked up: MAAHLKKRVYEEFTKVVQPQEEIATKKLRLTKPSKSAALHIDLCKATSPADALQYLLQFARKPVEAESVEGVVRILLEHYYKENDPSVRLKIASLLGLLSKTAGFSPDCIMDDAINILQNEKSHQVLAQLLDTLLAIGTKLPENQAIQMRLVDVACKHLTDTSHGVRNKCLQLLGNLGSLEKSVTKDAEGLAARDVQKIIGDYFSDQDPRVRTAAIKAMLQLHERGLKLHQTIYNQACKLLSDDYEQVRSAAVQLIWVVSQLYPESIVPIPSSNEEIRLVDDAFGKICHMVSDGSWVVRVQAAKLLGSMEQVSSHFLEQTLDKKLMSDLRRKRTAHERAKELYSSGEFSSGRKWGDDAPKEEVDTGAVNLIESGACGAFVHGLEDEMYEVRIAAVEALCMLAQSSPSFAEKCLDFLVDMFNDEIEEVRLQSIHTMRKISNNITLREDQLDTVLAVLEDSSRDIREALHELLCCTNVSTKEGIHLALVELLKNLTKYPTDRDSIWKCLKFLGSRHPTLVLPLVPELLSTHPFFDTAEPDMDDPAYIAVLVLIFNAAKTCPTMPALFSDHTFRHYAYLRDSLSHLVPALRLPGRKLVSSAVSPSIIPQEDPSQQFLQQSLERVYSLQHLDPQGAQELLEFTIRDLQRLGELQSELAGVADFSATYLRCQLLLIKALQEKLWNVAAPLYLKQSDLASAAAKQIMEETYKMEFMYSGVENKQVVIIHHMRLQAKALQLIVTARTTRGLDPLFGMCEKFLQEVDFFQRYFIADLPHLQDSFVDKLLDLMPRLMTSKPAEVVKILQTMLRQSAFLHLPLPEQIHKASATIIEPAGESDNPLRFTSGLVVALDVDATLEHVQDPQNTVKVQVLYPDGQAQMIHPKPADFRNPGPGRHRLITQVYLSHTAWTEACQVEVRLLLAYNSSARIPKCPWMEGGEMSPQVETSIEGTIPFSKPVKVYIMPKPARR
UniProt Q70UQ0: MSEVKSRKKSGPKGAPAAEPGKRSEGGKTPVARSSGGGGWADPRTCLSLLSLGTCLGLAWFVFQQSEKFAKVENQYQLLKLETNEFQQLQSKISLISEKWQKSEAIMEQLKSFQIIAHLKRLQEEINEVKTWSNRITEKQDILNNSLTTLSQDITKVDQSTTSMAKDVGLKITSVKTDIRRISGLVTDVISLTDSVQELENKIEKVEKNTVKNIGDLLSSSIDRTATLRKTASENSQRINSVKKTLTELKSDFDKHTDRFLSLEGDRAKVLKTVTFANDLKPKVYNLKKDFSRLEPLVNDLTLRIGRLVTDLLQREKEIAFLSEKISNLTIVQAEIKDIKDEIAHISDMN
UniProt P05556, whole entry, looked up: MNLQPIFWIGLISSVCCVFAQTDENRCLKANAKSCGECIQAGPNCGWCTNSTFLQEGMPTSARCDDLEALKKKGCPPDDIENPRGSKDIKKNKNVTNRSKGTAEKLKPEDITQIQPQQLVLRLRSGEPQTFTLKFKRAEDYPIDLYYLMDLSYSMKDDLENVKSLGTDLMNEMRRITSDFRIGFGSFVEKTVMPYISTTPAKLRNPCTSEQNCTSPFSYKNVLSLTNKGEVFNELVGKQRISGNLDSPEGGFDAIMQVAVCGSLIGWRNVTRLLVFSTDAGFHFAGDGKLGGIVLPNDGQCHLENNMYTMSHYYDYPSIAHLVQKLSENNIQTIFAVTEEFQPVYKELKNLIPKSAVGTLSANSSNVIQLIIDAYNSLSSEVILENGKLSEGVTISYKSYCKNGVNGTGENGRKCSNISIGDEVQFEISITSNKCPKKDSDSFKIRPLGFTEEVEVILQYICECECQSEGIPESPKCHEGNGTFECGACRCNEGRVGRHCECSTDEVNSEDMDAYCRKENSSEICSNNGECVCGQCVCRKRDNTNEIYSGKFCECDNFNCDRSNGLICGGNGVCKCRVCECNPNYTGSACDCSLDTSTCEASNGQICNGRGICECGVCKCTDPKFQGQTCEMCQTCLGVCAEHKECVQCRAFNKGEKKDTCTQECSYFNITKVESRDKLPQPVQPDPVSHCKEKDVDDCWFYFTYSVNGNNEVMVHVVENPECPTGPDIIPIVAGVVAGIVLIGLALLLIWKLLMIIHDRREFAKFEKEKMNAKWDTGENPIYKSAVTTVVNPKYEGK
UniProt Q9ULR0: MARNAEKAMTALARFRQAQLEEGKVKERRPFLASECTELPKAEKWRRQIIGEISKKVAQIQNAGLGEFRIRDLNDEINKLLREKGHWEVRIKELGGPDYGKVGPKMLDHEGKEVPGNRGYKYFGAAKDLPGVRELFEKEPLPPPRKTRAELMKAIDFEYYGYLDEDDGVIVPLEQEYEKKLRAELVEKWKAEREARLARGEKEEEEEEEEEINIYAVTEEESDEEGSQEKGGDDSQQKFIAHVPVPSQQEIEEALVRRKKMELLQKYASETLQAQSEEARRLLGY
UniProt O43837: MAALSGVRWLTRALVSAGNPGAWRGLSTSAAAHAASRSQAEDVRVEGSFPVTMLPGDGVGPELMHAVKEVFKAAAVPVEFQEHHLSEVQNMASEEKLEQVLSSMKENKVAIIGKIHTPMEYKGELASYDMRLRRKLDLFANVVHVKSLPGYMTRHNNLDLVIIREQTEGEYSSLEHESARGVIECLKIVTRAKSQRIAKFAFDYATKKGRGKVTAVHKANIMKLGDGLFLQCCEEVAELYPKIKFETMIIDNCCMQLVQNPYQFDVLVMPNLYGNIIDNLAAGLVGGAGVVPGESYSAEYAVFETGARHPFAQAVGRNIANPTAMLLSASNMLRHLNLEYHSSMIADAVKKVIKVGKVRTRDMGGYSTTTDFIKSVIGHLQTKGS
UniProt P05161, whole entry, looked up: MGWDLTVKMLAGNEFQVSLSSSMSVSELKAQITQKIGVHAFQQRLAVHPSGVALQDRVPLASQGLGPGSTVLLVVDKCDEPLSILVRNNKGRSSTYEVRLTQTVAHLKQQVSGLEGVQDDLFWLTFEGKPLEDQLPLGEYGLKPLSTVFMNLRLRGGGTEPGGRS
UniProt O00425, whole entry, looked up: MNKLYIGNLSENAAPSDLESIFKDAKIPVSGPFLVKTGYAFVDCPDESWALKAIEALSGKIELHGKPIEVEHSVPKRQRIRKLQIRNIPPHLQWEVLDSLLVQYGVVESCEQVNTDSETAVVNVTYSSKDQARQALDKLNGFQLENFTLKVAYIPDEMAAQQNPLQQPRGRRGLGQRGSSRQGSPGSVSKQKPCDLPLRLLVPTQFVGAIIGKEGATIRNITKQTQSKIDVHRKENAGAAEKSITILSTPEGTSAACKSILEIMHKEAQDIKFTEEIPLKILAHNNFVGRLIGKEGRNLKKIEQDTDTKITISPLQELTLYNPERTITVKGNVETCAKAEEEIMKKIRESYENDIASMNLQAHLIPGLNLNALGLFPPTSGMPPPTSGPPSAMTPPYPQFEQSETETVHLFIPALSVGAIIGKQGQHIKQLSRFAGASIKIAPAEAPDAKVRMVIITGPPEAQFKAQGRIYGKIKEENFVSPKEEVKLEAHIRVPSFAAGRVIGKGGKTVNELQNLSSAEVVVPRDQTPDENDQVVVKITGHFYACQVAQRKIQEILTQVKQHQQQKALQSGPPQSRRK
UniProt Q96CN7: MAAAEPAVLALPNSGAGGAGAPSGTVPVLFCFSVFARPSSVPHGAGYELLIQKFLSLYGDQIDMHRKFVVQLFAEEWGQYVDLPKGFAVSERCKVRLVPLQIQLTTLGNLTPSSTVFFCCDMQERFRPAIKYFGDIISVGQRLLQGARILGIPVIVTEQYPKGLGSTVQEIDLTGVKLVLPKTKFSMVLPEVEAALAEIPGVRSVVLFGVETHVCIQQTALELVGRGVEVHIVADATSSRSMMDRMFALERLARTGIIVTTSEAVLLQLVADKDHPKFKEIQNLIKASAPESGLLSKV

[2] = compound: CC1=C(C=C(C=C1)NC(=O)C2=CC(=CC=C2)N(C)C)NC(=O)C3=CC=C(C=C3)O
In short: as §1

[3] = compound: CC1=CC=C(C=C1)SC2=C3C=C(SC3=CN=C2)C(=O)N
In short: as §1

[4] = compound: CC1=NC(=CC=C1)C2=C(N=C(N2)C(C)(C)C)C3=CC4=NC=CN=C4C=C3
In short: as §1

Nexturastat A = compound: CCCCN(Cc1ccc(C(=O)NO)cc1)C(=O)Nc1ccccc1 [Nexturastat A]
In short: as §1

vemurafenib = compound: CCCS(=O)(=O)Nc1ccc(F)c(C(=O)c2c[nH]c3ncc(-c4ccc(Cl)cc4)cc23)c1F [vemurafenib]
In short: as §1

[5] = compound: CCCS(=O)(=O)Nc1ccc(F)c(C(=O)c2c[nH]c3ncc(Cl)cc23)c1F
In short: as §1

[6] = compound: CCCc1cc(C)[nH]c(=O)c1CNC(=O)c1cc(-c2ccnc(N3CCN(C)CC3)c2)cc2c1cnn2C(C)C
In short: as §1

givinostat = compound: CCN(CC)Cc1ccc2cc(COC(=O)Nc3ccc(C(=O)NO)cc3)ccc2c1 [givinostat]
In short: as §1

barasertib = compound: CCN(CCCOc1ccc2c(Nc3cc(CC(=O)Nc4cccc(F)c4)[nH]n3)ncnc2c1)CCOP(=O)(O)O [barasertib]
In short: as §1

[7] = compound: CC[C@@H]1C(=O)N(C)c2cnc(Nc3ccc(C(=O)NC4CCN(C)CC4)cc3OC)nc2N1C1CCCC1
In short: as §1

volasertib = compound: CC[C@@H]1C(=O)N(C)c2cnc(Nc3ccc(C(=O)N[C@H]4CC[C@H](N5CCN(CC6CC6)CC5)CC4)cc3OC)nc2N1C(C)C [volasertib]
In short: as §1

[8] = compound: CC[C@H](C)N1C=C(C2=C(C=C(C=C21)C3=CN=C(C=C3)N4CCNCC4)C(=O)NCC5=C(C=C(NC5=O)C)C)C
In short: as §1

epoxomicin = compound: CC[C@H](C)[C@@H](C(=O)N[C@@H]([C@@H](C)O)C(=O)N[C@@H](CC(C)C)C(=O)[C@]1(CO1)C)NC(=O)[C@H]([C@@H](C)CC)N(C)C(=O)C [epoxomicin]
In short: as §1

[9] = compound: CCn1c(C(=O)N(C2CC2)C2CC2)cc2c3c(ncn3C)c(Nc3cc(C)n(C)n3)nc21
In short: as §1

[10] = compound: CCn1cc(-c2ccnc3[nH]c(-c4cccc(CN(C)C)c4)cc23)c(-c2ccc(NC(=O)N(C)C)cc2)n1
In short: as §1

[11] = compound: CN(C)CC(=O)Nc1ccc2[nH]c(=O)c3ccccc3c2c1
In short: as §1

rosiglitazone = compound: CN(CCOC1=CC=C(C=C1)C[C@H]2C(=O)NC(=O)S2)C3=CC=CC=N3 (racemic) [rosiglitazone]
In short: as §1

[12] = compound: CN1C2=C(C3=C1C(=O)N(N=C3)CC4=CC(=CC=C4)N)SC(=C2)S(=O)C
In short: as §1

[13] = compound: CN1CCC(CNc2ccc3ncc(-c4cccc(OC(F)(F)F)c4)n3n2)CC1
In short: as §1

Measured: log2 fold change

IMPAD1 (UniProt Q9NX62)
inactive: [1] -0.081 | [2] 0.005 | [3] 0.042 | [4] 0.036 | Nexturastat A -0.024 | vemurafenib 0.024 | [5] 0.008 | [6] 0.023 | givinostat -0.055 | barasertib -0.017 | [7] 0.029 | volasertib -0.039 | [8] -0.025 | epoxomicin -0.032 | [9] 0.025 | [10] 0.016 | [11] 0.213 | rosiglitazone 0.022 | [12] -0.029 | [13] 0.04

IREB2 (UniProt P48200)
inactive: [1] 0.016 | [2] -0.013 | [3] 0.009 | [4] -0.015 | Nexturastat A 0.245 | vemurafenib 0.027 | [5] 0.053 | [6] 0.078 | givinostat -0.04 | barasertib 0.023 | [7] -0.058 | volasertib -0.126 | [8] 0.037 | epoxomicin 0.082 | [9] -0.054 | [10] -0.068 | [11] 0.039 | rosiglitazone 0.03 | [12] -0.005 | [13] -0.028

ITGB5 (UniProt P18084)
inactive: [1] -0.067 | [2] -0.025 | [3] -0.01 | [4] 0.006 | Nexturastat A -0.001 | vemurafenib 0.004 | [5] -0.004 | [6] 0.003 | givinostat 0 | barasertib -0.007 | [7] 0.022 | volasertib -0.072 | [8] -0.039 | epoxomicin 0.03 | [9] -0.003 | [10] -0.112 | [11] 0.111 | rosiglitazone -0.036 | [12] 0.007 | [13] 0.102

ITCH (UniProt Q96J02)
inactive: [1] 0.015 | [2] -0.031 | [3] 0 | [4] -0.009 | Nexturastat A 0.067 | vemurafenib 0.051 | [5] 0.031 | [6] 0.041 | givinostat 0.052 | barasertib 0.046 | [7] -0.059 | volasertib -0.272 | [8] 0.047 | epoxomicin 0 | [9] -0.07 | [10] -0.02 | [11] -0.033 | rosiglitazone 0.007 | [12] 0.079 | [13] -0.188

INTS10 (UniProt Q9NVR2)
inactive: [1] 0.004 | [2] -0.058 | [3] 0.048 | [4] 0.059 | Nexturastat A -0.04 | vemurafenib 0.084 | [5] 0.024 | [6] -0.001 | givinostat 0.02 | barasertib 0.1 | [7] -0.143 | volasertib -0.206 | [8] 0.023 | epoxomicin 0.048 | [9] -0.04 | [10] -0.036 | [11] 0.09 | rosiglitazone 0.049 | [12] 0 | [13] -0.086

IRGQ (UniProt Q8WZA9)
inactive: [1] 0.002 | [2] -0.053 | [3] 0.004 | [4] -0.038 | Nexturastat A 0.004 | vemurafenib -0.004 | [5] -0.006 | [6] -0.008 | givinostat 0.029 | barasertib 0.014 | [7] 0.027 | volasertib 0.021 | [8] 0.023 | epoxomicin 0.066 | [9] -0.008 | [10] -0.057 | [11] 0.008 | rosiglitazone 0.043 | [12] -0.009 | [13] 0.058

INTS4 (UniProt Q96HW7)
inactive: [1] 0.014 | [2] -0.001 | [3] 0.004 | [4] 0.01 | Nexturastat A -0.044 | vemurafenib 0 | [5] 0.003 | [6] -0.023 | givinostat 0.001 | barasertib 0.015 | [7] 0.009 | volasertib -0.102 | [8] -0.009 | epoxomicin 0.041 | [9] -0.036 | [10] 0.015 | [11] -0.04 | rosiglitazone 0.029 | [12] -0.03 | [13] 0.035

IKBIP (UniProt Q70UQ0)
inactive: [1] -0.045 | [2] 0.019 | [3] -0.004 | [4] 0.009 | Nexturastat A 0.022 | vemurafenib -0.062 | [5] -0.023 | [6] -0.026 | givinostat -0.019 | barasertib -0.002 | [7] 0.018 | volasertib 0.014 | [8] -0.007 | epoxomicin -0.039 | [9] 0.046 | [10] -0.008 | [11] -0.031 | rosiglitazone 0.022 | [12] 0.001 | [13] 0.14

ITGB1 (UniProt P05556)
inactive: [1] -0.025 | [2] -0.022 | [3] 0.02 | [4] 0 | Nexturastat A -0.009 | vemurafenib -0.01 | [5] -0.022 | [6] 0.008 | givinostat -0.018 | barasertib 0.007 | [7] 0.025 | volasertib -0.007 | [8] -0.017 | epoxomicin 0.024 | [9] 0.008 | [10] -0.031 | [11] 0 | rosiglitazone -0.026 | [12] -0.068 | [13] 0.073

ISY1 isoform 1 (UniProt Q9ULR0)
inactive: [1] -0.026 | [2] -0.006 | [3] -0.008 | [4] -0.03 | Nexturastat A 0.03 | vemurafenib -0.032 | [5] -0.069 | [6] -0.038 | givinostat -0.025 | barasertib 0.01 | [7] 0.104 | volasertib 0.076 | [8] -0.066 | epoxomicin -0.001 | [9] 0.038 | [10] 0.005 | [11] -0.039 | rosiglitazone -0.042 | [12] -0.003 | [13] -0.061

INTS14 (UniProt Q96SY0)
inactive: [1] -0.003 | [2] -0.049 | [3] 0.035 | [4] 0.01 | Nexturastat A -0.07 | vemurafenib 0.063 | [5] 0.103 | [6] 0.056 | givinostat 0.009 | barasertib 0.007 | [7] -0.044 | volasertib -0.117 | [8] 0.048 | epoxomicin 0.031 | [9] -0.02 | [10] -0.029 | [11] 0.039 | rosiglitazone 0.023 | [12] -0.049 | [13] -0.061

IDH3B (UniProt O43837)
inactive: [1] 0.027 | [2] -0.056 | [3] 0.067 | [4] 0.014 | Nexturastat A -0.042 | vemurafenib 0.016 | [5] 0.073 | [6] -0.086 | givinostat 0.024 | barasertib 0.008 | [7] 0.002 | volasertib 0.008 | [8] 0.005 | epoxomicin 0.054 | [9] -0.019 | [10] -0.071 | [11] 0.001 | rosiglitazone 0.044 | [12] -0.063 | [13] -0.025

ISG15 (UniProt P05161)
inactive: [1] 0.007 | [2] -0.059 | [3] -0.005 | [4] 0.079 | Nexturastat A 0.017 | vemurafenib 0.065 | [5] 0.057 | [6] -0.022 | givinostat 0.106 | barasertib 0.056 | [7] 0.002 | volasertib -0.198 | [8] 0.088 | epoxomicin -0.049 | [9] -0.045 | [10] -0.075 | [11] 0.062 | rosiglitazone 0.083 | [12] -0.102 | [13] -0.053

IQSEC1 (UniProt Q6DN90)
inactive: [1] -0.025

IGF2BP3 (UniProt O00425)
inactive: [1] 0.077 | [2] -0.004 | [3] 0.055 | [4] -0.147 | Nexturastat A 0.427 | vemurafenib 0.03 | [5] 0.189 | [6] 0.269 | givinostat 0.113 | barasertib -0.007 | [7] 0.102 | volasertib -0.092 | [8] 0.118 | epoxomicin -0.324 | [9] 0.027 | [10] 0.141 | [11] -0.033 | rosiglitazone -0.083 | [12] 0.425 | [13] -0.036

Fetched one by one from the entries so far, two records:
ISG15 (UniProt P05161)
inactive: [1] 0.007 | [2] -0.059 | [3] -0.005 | [4] 0.079 | Nexturastat A 0.017 | vemurafenib 0.065 | [5] 0.057 | [6] -0.022 | givinostat 0.106 | barasertib 0.056 | [7] 0.002 | volasertib -0.198 | [8] 0.088 | epoxomicin -0.049 | [9] -0.045 | [10] -0.075 | [11] 0.062 | rosiglitazone 0.083 | [12] -0.102 | [13] -0.053

IGF2BP3 (UniProt O00425)
inactive: [1] 0.077 | [2] -0.004 | [3] 0.055 | [4] -0.147 | Nexturastat A 0.427 | vemurafenib 0.03 | [5] 0.189 | [6] 0.269 | givinostat 0.113 | barasertib -0.007 | [7] 0.102 | volasertib -0.092 | [8] 0.118 | epoxomicin -0.324 | [9] 0.027 | [10] 0.141 | [11] -0.033 | rosiglitazone -0.083 | [12] 0.425 | [13] -0.036

Remaining list, next part.

IKBIP isoform 4 (UniProt Q70UQ0)
inactive: [1] -0.059 | [2] 0.001 | [3] -0.021 | [4] -0.021 | Nexturastat A 0.021 | vemurafenib -0.008 | [5] -0.026 | [6] 0.006 | givinostat -0.074 | barasertib 0.001 | [7] 0.022 | volasertib -0.022 | [8] -0.019 | epoxomicin -0.002 | [9] 0.022 | [10] 0.017 | [11] -0.047 | rosiglitazone 0 | [12] 0.013 | [13] 0.052

ISOC1 (UniProt Q96CN7)
inactive: [1] -0.005 | [2] -0.018 | [3] -0.001 | [4] -0.003 | Nexturastat A -0.049 | vemurafenib 0.008 | [5] -0.021 | [6] -0.068 | givinostat -0.005 | barasertib -0.024 | [7] -0.003 | volasertib 0.011 | [8] -0.047 | epoxomicin -0.006 | [9] 0.037 | [10] -0.038 | [11] 0.011 | rosiglitazone 0.024 | [12] -0.036 | [13] 0.014

From the supplement of paper PMC10849652
